Measurements from patent US20070010658A1 (published 2007).
Numbering of substitutions follows the chain as printed. These are yes or no findings as the source states them, for the method shown. Some results given as binding are weak or reduced against the parent protein; the word gives no strength.

The chains behind the UniProt entries cited, without tags or fusion partners. Residues count along the entry.
UniProt P01375, residues 77-233: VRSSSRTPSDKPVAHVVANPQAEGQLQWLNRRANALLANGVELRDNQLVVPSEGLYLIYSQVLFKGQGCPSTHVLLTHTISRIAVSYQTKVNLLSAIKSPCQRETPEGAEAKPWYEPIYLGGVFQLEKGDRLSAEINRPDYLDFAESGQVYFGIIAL

B1: TN3-2-B (monomeric) (designed binder)
chain: ALQTVCLKGTKVHMKCFLAFTQTKTFHEASEDCISRGGTLSTPQTGSENDALYEYLRQSVGNEAEIWLGLNKVRSRYFWMDMTGTRIAYKNWETEITAQPDPTNNENCAVLSGAANGKWFGKRCRDQLPYICQFGIV
notes: Purified monomer from the E. coli periplasm (pBAD) for SPR
B2: TN3-2-C (monomeric) (designed binder)
chain: B1 chain with M80V, N105R, G121D
notes: as for B1
B3: TN3-2-D (monomeric) (designed binder)
chain: B1 chain with M80I, T103N, N105R
notes: as for B1

Target: T1, TNF alpha (UniProt P01375 77-233, limits assumed)
T1 construct: also called tumour necrosis factor; TNFSF2
Test: phage ELISA on coated TNF

Binder | binding
B1 | binds
B2 | binds
B3 | binds
